# Measured values taken from patent US20250129084A1, “Compounds” (GlaxoSmithKline Intellectual Property Development Limited, priority 2022, published 2025).
# The chains behind the UniProt entries cited, without tags or fusion partners. Where a name states a change or a piece, a line headed by the entry shows the natural chain unless it says otherwise.
# UniProt P9WFU9: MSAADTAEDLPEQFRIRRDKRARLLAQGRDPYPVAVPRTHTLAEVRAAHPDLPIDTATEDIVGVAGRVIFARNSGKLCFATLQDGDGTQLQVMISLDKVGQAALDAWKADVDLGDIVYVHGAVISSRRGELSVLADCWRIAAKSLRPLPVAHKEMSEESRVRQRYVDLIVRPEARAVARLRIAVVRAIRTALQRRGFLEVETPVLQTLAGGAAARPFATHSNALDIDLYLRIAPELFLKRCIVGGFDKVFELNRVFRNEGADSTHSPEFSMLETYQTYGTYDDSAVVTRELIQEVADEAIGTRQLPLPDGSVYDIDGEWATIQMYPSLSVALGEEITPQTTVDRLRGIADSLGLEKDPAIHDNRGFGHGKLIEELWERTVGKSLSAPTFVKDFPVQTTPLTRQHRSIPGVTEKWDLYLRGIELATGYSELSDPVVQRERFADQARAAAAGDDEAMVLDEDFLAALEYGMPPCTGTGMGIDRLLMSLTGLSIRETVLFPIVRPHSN
# Some of these results come from one statement about several compounds together.
# Assays:
# [1] = tested on: Mycobacterium tuberculosis H37Rv; assay: Mycobacterium tuberculosis in vitro H37Rv extracellular inhibition assay (OD readout); format: cell-based; conditions: conclusion from extracellular assay 2, intracellular assay 3 and in vivo assay 4
# [2] = biological target: T1, Mycobacterium tuberculosis lysine tRNA synthetase (MtKRS) (Mycobacterium tuberculosis, UniProt P9WFU9); format: biochemical
# T1 construct: made in house; host or cells: E. coli BL21 (DE3)
Structure (SMILES),activity against Mycobacterium tuberculosis growth (conclusion in words) [1],activity against Mycobacterium tuberculosis lysine tRNA synthetase (conclusion in words) [2]
"CCOc1nc(N)nc2c1C(=O)N([C@@H]1CCCCC[C@@H]1O)C2 [Example 46, 2-Amino-4-ethoxy-6-((1R,2S)-2-hydroxycycloheptyl)-6,7-dihydro-5H-pyrrolo[3,4-d]pyrimidin-5-one]",good activity,–
"CNc1nc(N)nc2c1C(=O)N([C@H]1[C@@H](O)CCCCC1(F)F)C2 [Example 51, 2-Amino-6-((1S,7S)-2,2-difluoro-7-hydroxycycloheptyl)-4-(methylamino)-6,7-dihydro-5H-pyrrolo[3,4-d]pyrimidin-5-one]",good activity,good activity
